This passage reports binding results from publication doi:10.1101/2022.03.07.483334.

By UniProt entry, the sequences of proteins in these tests, tags left out. Where a name states a change or a piece, a line headed by the entry shows the natural chain unless it says otherwise.
UniProt P15976, whole entry, stated change not applied: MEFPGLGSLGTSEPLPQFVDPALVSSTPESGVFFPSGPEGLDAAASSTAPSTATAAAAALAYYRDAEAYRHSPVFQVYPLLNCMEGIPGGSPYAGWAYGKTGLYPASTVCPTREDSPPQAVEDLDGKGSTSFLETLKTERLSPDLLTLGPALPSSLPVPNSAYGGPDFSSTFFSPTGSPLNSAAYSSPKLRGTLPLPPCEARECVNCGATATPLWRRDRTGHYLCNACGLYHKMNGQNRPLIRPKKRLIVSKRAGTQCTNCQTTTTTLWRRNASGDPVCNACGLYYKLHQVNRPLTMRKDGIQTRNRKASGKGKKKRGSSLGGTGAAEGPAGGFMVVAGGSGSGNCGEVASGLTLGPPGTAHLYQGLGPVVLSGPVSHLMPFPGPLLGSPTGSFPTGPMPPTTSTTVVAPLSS

The assay addresses HA-tagged GATA1 (doxycycline-inducible, in CMK cells) (UniProt P15976). The experiment in a line: co-IP.

No constants are given. Whether binding was seen depends on the method and setting. In cells and extracts the contact can be indirect.

Turning to “RUNX1A (in CMK cells, tested with HA-GATA1/GATA1s) (from UniProt Q01196-2)”, the binding entry is given as “no binding”.
